The results in this text go back to article PMC10095469.

Chains of the proteins cited; added tags and fusions are not shown.
UniProt P10415: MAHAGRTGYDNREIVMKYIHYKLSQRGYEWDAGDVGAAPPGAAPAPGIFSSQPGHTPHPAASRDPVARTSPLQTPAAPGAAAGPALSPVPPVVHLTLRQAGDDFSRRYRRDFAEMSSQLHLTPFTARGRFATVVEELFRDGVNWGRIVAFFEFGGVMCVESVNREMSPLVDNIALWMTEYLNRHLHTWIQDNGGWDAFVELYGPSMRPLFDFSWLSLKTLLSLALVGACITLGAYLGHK
UniProt Q14457: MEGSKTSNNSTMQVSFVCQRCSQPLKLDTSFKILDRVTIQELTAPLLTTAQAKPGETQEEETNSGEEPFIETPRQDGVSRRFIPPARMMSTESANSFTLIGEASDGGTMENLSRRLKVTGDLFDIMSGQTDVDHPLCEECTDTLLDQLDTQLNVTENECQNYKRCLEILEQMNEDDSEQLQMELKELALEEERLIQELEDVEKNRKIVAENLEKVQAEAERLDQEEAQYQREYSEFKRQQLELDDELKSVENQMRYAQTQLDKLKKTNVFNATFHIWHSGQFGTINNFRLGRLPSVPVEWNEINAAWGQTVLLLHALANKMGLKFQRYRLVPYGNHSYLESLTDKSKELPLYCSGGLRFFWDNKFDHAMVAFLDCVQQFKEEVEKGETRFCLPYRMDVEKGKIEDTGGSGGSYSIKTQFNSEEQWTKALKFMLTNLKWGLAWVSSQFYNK
UniProt Q9UBN7: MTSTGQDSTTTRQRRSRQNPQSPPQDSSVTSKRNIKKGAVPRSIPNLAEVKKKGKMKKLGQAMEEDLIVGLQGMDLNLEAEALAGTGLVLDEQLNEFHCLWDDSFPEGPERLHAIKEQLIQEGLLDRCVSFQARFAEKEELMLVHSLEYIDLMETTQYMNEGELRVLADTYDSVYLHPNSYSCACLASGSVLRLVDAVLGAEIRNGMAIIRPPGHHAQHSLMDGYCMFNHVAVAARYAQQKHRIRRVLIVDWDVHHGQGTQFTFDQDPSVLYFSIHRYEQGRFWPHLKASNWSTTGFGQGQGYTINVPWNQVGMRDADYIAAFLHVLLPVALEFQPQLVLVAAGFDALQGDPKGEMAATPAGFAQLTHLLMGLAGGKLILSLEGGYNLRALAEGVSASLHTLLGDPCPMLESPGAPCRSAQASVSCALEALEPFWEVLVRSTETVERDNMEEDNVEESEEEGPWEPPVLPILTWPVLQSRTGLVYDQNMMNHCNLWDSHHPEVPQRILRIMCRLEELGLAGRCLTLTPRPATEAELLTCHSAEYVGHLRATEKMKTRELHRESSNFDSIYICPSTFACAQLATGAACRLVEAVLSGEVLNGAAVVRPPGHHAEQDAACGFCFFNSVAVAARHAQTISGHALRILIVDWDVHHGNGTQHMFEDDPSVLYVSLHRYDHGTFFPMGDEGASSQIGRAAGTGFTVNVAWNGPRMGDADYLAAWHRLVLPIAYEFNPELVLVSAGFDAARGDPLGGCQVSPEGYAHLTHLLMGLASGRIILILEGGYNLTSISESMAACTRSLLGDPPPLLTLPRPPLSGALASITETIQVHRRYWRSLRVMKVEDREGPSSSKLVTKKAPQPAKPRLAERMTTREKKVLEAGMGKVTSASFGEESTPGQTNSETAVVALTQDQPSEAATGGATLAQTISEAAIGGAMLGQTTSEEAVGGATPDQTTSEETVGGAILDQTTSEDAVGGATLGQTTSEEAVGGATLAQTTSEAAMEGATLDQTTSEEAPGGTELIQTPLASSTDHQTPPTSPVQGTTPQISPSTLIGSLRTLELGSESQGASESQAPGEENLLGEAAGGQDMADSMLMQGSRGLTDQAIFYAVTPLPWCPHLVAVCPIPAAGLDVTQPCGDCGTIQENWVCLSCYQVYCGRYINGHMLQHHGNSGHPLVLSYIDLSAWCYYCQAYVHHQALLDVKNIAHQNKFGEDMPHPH

One experiment deals with HA-Bcl-2 (UniProt P10415). The experiment in a line: co-IP; lysates of HCT116 cells transfected with HA-Bcl-2 or HA-Bcl-xL, treated with or without compound 6d (5 uM, 8 h in Figure 3A); IP with anti-HA antibody and protein A + G agarose at 4 °C, WB.
The target of experiment [1] is T1, caspase 3-Flag (Flag-tagged at the C-terminal of caspase 3) (UniProt P42574).
T1 sequence: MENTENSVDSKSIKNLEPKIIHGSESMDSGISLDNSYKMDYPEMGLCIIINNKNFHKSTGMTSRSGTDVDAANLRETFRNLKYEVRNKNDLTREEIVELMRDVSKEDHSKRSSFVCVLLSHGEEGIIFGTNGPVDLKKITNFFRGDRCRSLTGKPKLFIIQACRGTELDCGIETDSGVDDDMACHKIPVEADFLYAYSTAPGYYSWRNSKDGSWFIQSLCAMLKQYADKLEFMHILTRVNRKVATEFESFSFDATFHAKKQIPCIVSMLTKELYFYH
The experiment in a line: co-IP; HCT116 cells transfected with HDAC6-HA and caspase 3-Flag, treated with or without compound 6d; IP with anti-HA or anti-Flag, WB with anti-Flag or anti-HA.

Results are given in words; binding and its absence hold for the method and conditions named. Binding seen in cells or lysates may run through a third protein. Some binding calls cover weakened binding; strength is not graded here. For some assays here: Sequences can lack the tags named with a protein.

In the case of “Beclin 1, endogenous (from UniProt Q14457 1-450)”, in the experiment with HA-Bcl-2, the binding entry is “binds”. On to “HDAC6-HA (HA-tagged at the C-terminal of HDAC6) (from UniProt Q9UBN7 1-1215) (enzyme)”, for which, in experiment [1], the binding result is “binds”.
